From patent EP4137518A1 (Inhibrx, Inc., dated 2023) come the findings set out here.

Assay [1] deals with cynomolgus monkey CD47 on cynomolgus B-cells (cynomolgus monkey). Nature of the assay: flow cytometry on CD20 positive cynomolgus B-cells, normalized median FL1.
For assay [2] the target is unchanged. Nature of the assay: flow cytometry on cynomolgus monkey B-cells (Figure 5).

These are yes or no findings as the source states them, for the method shown. Some binding calls cover weakened binding; strength is not graded here.

B1: 2A1 antibody (murine) (antibody, V domains shown)
VH: EVQLQQSGAELVRSGASVKLSCTASGFNIKDYYLHWVKQRPEQGLEWIGWIDPDNGDTEFAPKFQGKATMTADTSSNTAYLQLSSLTSEDTAVYYCNAAYGSSSYPMDYWGQGTSVTV
VL: DIKMTQSPSSLYASLGERVTITCKASQDIHRYLSWFQQKPGKSPKILIYRANRLVDGVPSRFSGSGSGQDYSLTISSLEYEDMGIYYCLQYDEFPYTFGGGTKLEMK
On to B1, for which the binding entry in assay [1] and in assay [2] was “binds” in each case.
